Laboratory results published in patent US10016409B2, “Method for improving interstitial flow” (priority 2012, dated 2018).

Test system: Tg-SwDI mice
Experiment: Cerebral artery reactivity to CO2 supply (vascular pulsation driving force) in Tg-SwDI mice
Type: in vivo
Conditions: average±standard error, no difference vs ordinary feed, p>0.10
From the text: In brain interstitial flow in a central nervous system, vascular wall motion caused by vascular pulsation of artery serves as a driving force so that harmful proteins are excreted (see Mechanisms to explain the reverse perivascular transport of solutes out of the brain. J Theor Biol. 2006 Feb. 21; 238(4): 962-74), Dilation of artery in vascular pulsation is caused by an increased blood pressure in artery due to pulsation of heart, and a decrease in dilation ability of artery attenuates vascular wall motion, and also reduces the interstitial flow. […] The degree of vascular elasticity in cerebral artery can be evaluated by using reactivity with a change in the concentration of blood carbon dioxide. Specifically, cerebral artery whose vascular elasticity and vascular pulsation driving force are maintained, has the ability of sufficiently dilating the vessel diameter afer an increase in the concentration of blood carbon dioxide, and maintains excretion ability for harmful proteins through h interstitial flow. On the other hand, cerebral artery whose vascular elasticity and vascular pulsation driving force are decreased, loses the ability of sufficiently dilating the vessel diameter in response to an increase in the concentration of blood carbon dioxide, and has its escretion ability for harmful proteins impaired. […]

## O=C1CCc2cc(OCCCCc3nnnn3C3CCCCC3)ccc2N1 [cilostazol, 6-[4-(1-cyclohexyl-1H-tetrazole-5-yl)butoxy]3,4-dihydrocarbostyril]
AIR group (no CO2), cilostazol-containing feed 0.3 wt % for 13.5 months, age 15 months
  cerebral artery diameter in the AIR supply: 18.9±1.10 μm
cilostazol-containing feed for 8 months, age 4 to 12 months
  cerebral artery diameter before the CO2 supply: 21.3±3.85 μm
